Measurements taken from the supplement of paper PMC10849652.
Some of the results follow.

Chains of the proteins cited; added tags and fusions are not shown. Lines headed by an entry give the natural chain unless they say otherwise; changes in a name come on top.
UniProt A6NNY8: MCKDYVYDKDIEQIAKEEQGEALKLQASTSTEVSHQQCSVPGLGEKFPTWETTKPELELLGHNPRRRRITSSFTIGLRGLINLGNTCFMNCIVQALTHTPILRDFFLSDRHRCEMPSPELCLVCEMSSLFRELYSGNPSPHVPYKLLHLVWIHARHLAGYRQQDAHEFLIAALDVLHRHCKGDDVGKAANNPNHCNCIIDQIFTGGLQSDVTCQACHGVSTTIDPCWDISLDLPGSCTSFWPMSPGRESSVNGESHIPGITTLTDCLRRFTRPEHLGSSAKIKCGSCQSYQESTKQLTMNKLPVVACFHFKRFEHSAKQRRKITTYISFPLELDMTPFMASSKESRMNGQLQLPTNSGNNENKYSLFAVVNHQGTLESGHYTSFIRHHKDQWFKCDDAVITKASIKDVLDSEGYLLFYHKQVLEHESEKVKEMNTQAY
UniProt Q8NBZ7: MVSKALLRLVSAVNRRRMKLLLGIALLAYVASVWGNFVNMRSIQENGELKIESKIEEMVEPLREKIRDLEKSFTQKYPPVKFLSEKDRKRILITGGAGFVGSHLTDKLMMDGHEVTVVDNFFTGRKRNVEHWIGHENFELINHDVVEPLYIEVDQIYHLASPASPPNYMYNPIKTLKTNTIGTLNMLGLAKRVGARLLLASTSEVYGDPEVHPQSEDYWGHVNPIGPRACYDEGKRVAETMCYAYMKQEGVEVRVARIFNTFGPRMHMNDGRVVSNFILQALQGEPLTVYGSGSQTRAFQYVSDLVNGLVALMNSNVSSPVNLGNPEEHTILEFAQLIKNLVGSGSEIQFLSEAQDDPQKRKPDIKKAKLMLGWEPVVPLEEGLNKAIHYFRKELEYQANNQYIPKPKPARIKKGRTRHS
UniProt Q15836, whole entry, looked up: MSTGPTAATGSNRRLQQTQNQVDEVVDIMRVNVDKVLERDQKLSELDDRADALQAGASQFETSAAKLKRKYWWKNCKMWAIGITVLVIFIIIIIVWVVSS
UniProt Q16831: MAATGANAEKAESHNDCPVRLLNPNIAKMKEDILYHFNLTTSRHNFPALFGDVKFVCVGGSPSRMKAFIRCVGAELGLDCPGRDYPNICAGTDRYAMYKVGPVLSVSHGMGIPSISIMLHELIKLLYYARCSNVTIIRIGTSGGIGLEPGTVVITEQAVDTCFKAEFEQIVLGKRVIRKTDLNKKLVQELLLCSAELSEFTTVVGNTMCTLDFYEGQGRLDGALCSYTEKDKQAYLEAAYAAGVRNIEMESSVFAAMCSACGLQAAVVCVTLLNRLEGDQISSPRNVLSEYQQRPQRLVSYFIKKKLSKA
UniProt Q9BZM6: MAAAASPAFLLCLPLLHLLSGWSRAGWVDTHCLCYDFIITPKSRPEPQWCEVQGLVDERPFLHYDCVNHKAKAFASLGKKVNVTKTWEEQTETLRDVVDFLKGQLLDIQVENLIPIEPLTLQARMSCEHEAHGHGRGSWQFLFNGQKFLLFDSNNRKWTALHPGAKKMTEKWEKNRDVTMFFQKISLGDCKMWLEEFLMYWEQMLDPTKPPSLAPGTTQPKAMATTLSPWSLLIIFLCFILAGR
UniProt O75691: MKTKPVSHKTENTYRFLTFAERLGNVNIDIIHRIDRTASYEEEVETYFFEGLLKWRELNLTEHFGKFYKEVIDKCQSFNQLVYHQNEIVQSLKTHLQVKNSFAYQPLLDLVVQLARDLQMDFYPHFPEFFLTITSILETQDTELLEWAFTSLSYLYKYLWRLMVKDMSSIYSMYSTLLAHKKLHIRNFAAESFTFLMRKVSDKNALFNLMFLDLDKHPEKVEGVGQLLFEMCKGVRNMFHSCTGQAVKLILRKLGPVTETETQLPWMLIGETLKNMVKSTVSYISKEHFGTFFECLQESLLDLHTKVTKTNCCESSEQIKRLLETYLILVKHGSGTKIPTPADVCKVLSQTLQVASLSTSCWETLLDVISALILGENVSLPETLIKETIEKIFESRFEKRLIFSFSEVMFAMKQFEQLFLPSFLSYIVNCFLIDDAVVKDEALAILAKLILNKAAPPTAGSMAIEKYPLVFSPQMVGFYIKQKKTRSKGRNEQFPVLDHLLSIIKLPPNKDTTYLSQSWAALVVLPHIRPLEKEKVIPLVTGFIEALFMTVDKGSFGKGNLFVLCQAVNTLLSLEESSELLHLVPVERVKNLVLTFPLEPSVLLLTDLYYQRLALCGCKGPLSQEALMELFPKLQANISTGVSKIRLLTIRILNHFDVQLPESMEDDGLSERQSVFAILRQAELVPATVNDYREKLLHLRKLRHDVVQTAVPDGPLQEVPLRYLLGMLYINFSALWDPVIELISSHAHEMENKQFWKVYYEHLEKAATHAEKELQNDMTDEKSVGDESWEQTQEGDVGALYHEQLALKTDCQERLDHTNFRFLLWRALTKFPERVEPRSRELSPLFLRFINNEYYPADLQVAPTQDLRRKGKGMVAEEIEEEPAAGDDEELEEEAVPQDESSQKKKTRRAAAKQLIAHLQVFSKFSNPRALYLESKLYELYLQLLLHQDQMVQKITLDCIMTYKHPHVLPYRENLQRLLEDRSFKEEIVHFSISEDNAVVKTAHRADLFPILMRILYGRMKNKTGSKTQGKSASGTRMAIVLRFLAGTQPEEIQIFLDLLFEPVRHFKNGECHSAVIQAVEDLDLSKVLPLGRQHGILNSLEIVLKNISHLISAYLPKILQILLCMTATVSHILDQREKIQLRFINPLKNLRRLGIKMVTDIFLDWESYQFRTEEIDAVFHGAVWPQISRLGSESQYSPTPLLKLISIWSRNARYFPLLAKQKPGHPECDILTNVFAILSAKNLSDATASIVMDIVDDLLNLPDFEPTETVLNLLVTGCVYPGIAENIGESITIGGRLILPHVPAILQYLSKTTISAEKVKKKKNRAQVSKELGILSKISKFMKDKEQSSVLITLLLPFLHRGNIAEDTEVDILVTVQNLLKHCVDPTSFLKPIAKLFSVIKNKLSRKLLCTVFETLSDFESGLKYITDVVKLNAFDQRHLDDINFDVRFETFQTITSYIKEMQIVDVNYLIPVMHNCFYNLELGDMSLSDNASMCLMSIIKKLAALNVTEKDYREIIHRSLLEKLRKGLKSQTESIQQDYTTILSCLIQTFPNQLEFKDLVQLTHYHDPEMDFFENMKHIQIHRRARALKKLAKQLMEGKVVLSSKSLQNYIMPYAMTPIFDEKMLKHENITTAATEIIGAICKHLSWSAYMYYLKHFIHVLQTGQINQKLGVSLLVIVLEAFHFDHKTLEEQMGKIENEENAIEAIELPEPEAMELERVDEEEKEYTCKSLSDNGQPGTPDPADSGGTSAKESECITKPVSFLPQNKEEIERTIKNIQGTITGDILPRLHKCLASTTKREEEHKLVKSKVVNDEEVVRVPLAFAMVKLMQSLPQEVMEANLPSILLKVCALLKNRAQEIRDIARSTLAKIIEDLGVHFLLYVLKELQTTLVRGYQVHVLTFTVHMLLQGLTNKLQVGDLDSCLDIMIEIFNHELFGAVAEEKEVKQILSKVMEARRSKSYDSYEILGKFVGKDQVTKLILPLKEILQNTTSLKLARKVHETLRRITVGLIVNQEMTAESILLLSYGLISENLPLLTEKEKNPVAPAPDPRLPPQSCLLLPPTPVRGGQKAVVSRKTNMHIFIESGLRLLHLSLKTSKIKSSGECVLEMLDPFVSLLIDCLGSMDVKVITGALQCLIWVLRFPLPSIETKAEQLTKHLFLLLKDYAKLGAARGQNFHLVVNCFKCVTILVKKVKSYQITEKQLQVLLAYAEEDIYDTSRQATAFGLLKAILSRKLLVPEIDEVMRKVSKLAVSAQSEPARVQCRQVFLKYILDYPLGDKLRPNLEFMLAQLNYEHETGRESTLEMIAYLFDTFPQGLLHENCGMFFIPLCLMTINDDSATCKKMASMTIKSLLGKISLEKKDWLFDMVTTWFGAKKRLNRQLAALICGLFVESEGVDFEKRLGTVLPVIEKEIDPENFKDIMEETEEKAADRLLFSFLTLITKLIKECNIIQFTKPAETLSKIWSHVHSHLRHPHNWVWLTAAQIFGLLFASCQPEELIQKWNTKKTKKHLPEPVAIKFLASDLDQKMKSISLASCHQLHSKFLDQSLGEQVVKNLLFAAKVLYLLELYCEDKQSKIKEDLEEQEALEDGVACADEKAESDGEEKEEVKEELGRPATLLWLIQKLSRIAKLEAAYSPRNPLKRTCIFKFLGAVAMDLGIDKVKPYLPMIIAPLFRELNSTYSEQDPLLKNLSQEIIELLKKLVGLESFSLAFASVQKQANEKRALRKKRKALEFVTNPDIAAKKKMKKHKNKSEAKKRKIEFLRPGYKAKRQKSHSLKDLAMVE
UniProt Q9UMX0, whole entry, looked up: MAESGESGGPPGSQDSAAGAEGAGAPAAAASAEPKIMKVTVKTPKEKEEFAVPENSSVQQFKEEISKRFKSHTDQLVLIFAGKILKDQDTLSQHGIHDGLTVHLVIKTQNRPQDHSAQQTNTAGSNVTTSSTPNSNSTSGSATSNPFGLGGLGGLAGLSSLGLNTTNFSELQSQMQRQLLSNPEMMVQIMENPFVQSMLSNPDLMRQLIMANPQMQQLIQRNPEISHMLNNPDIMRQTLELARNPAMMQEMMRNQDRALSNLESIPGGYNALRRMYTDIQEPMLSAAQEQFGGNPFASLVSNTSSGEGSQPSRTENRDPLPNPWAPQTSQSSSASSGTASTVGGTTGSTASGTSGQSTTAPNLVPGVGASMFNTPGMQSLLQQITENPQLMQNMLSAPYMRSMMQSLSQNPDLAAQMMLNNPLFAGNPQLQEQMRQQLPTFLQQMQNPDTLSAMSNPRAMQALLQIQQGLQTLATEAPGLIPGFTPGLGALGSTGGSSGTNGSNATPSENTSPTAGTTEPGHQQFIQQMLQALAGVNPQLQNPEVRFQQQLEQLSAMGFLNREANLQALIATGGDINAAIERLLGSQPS
UniProt Q9H347: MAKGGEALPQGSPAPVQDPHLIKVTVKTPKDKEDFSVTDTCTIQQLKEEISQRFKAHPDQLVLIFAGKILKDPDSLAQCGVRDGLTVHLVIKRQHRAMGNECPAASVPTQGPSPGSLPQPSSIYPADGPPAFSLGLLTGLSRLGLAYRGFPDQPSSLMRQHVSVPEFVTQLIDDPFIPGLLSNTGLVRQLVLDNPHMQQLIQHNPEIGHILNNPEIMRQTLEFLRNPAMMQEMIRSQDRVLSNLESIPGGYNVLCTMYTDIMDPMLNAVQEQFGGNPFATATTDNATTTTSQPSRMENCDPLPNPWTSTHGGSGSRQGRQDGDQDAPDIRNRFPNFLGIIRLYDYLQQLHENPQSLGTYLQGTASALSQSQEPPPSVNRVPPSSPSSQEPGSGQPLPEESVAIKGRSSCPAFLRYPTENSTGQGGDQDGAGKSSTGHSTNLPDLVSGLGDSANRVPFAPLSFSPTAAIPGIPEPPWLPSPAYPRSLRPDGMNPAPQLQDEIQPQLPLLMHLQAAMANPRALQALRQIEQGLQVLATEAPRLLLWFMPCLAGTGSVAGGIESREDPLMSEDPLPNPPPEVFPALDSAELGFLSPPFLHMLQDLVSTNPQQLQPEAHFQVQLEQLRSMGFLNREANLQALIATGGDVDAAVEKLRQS
UniProt P09936: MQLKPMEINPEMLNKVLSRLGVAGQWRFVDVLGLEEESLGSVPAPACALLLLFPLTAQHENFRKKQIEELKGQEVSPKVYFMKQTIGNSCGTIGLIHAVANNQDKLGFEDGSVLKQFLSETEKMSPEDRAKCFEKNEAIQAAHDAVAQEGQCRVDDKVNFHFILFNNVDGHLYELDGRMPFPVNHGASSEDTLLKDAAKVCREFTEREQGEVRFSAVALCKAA
UniProt Q92738: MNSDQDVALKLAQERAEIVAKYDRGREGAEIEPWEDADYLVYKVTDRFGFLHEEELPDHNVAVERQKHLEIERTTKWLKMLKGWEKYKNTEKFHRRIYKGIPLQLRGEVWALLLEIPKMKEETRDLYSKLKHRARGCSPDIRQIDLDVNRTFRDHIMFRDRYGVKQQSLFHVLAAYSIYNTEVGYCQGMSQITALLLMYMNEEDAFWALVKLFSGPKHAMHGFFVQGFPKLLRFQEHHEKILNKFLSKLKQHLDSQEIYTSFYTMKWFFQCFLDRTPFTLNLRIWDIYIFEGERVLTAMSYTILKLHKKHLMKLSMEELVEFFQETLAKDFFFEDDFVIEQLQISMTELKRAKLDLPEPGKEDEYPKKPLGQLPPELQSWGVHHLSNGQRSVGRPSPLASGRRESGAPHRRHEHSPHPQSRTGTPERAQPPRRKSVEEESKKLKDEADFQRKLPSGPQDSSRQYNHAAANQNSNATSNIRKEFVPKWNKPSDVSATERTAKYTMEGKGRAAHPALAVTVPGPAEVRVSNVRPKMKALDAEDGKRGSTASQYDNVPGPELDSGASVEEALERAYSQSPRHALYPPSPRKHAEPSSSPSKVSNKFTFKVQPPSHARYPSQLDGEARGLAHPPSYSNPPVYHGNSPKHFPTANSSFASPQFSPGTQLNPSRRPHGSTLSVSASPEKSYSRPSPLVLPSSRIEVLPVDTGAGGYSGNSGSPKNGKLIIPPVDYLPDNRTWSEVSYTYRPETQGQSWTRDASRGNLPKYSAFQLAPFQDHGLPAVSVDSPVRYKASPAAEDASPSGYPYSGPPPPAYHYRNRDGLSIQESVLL

Columns and labels:
Assay in all cases: log2 fold change, soluble protein after heating vs DMSO (PISA); higher = thermal stabilisation; K562 cells, 10 uM, 30 min; active = over 0.2 and 3.5 SD of the protein, either way, in both replicates (recomputed)
bafetinib = compound: Cc1ccc(NC(=O)c2ccc(CN3CC[C@H](N(C)C)C3)c(C(F)(F)F)c2)cc1Nc1nccc(-c2cncnc2)n1 [bafetinib]
In short: (§1)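 K562 cells at 2×10^6 cells/mL were exposed to 10 μM compound for 30 min, then aliquots were heated for 3 min across 48°C-58°C, pooled, and extracted in PBS containing 0.5% NP-40 at 4°C. The supernatant after 21,000xg for 90 min was taken as soluble protein and measured by TMTpro 16plex LC-MS/MS with channel sums equalised. Thermal stability is reported relative to control samples, with values from duplicates. Fold changes are given on a log2 scale.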

[1] = compound: NC(=O)Nc1cc(-c2cccc(F)c2)sc1C(=O)N[C@H]1CCCNC1
In short: as §1

[2] = compound: NCC(=O)Nc1ccc(-n2nc(C(F)(F)F)cc2-c2ccc3c(ccc4ccccc43)c2)cc1
In short: as §1

entinostat = compound: Nc1ccccc1NC(=O)c1ccc(CNC(=O)OCc2cccnc2)cc1 [entinostat]
In short: as §1

[3] = compound: O=C1NC(=O)C(c2cnc3ccccn23)=C1c1cn2c3c(cc(F)cc13)CN(C(=O)N1CCCCC1)CC2
In short: as §1

nilotinib = compound: Cc1cn(-c2cc(NC(=O)c3ccc(C)c(Nc4nccc(-c5cccnc5)n4)c3)cc(C(F)(F)F)c2)cn1 [nilotinib]
In short: as §1

[4] = compound: Cc1nc(Nc2n[nH]c3c2CN(C(=O)N[C@H](CN(C)C)c2ccccc2)C3(C)C)c2sccc2n1
In short: as §1

[5] = compound: Cc1ncc(-c2ccnc(Nc3ccc(S(C)(=O)=O)cc3)n2)n1C(C)C
In short: as §1

mubritinib = compound: FC(F)(F)c1ccc(/C=C/c2nc(COc3ccc(CCCCn4ccnn4)cc3)co2)cc1 [mubritinib]
In short: as §1

[6] = compound: NC(=O)c1cnc(N[C@@H]2CCCC[C@@H]2N)nc1Nc1cccc(-n2nccn2)c1
In short: as §1

[7] = compound: NC1(c2ccc(-c3nc4ccn5c(=O)[nH]nc5c4cc3-c3ccccc3)cc2)CCC1
In short: as §1

silmitasertib = compound: O=C(O)c1ccc2c(c1)nc(Nc1cccc(Cl)c1)c1ccncc12 [silmitasertib]
In short: as §1

[8] = compound: Cc1cccc(CC(=O)N2CCc3c2ccc(-c2cn(C)c4ncnc(N)c24)c3F)n1
In short: as §1

dasatinib = compound: Cc1nc(Nc2ncc(C(=O)Nc3c(C)cccc3Cl)s2)cc(N2CCN(CCO)CC2)n1 [dasatinib]
In short: as §1

[9] = compound: Cn1cc(-c2ccc3c(c2)CCN3C(=O)Cc2cccc(C(F)(F)F)c2)c2c(N)ncnc21
In short: as §1

[10] = compound: Cn1cc(-c2ccc3nnc(C(F)(F)c4ccc5ncccc5c4)n3n2)cn1
In short: as §1

tipifarnib = compound: Cn1cncc1[C@@](N)(c1ccc(Cl)cc1)c1ccc2c(c1)c(-c1cccc(Cl)c1)cc(=O)n2C [tipifarnib]
In short: as §1

vorinostat = compound: O=C(CCCCCCC(=O)Nc1ccccc1)NO [vorinostat]
In short: as §1

citarinostat = compound: O=C(CCCCCCNC(=O)c1cnc(N(c2ccccc2)c2ccccc2Cl)nc1)NO [citarinostat]
In short: as §1

[11] = compound: c1cc(OCCN2CCCCC2)cc(-c2n[nH]c3ccc(-c4nnc[nH]4)cc23)c1
In short: as §1

Measured: log2 fold change

VASN (UniProt Q6EMK4)
inactive: bafetinib -0.081 | [1] -0.069 | [2] 0.102 | entinostat -0.172 | [3] -0.079

UGP2 (UniProt C9JWG0)
inactive: bafetinib -0.145 | nilotinib -0.225 | [4] -0.141 | [5] 0.079 | mubritinib -0.003 | [1] -0.097 | [6] -0.052 | [7] -0.08 | entinostat -0.117 | silmitasertib 0.142

USP32 (UniProt Q8NFA0)
inactive: [8] 0.011 | nilotinib -0.004 | [4] 0.081 | dasatinib -0.046 | [5] 0.053 | [9] -0.074 | [10] 0.012 | tipifarnib -0.336 | [1] -0.025 | [6] -0.061 | entinostat -0.066 | vorinostat 0.14 | [3] -0.026

USP27X (UniProt A6NNY8)
inactive: dasatinib 0.03 | [9] -0.353 | [10] -0.168 | [6] -0.253 | [3] -0.026

UPF3A (UniProt Q9H1J1)
inactive: [1] 0.135 | entinostat -0.339 | citarinostat -0.154 | [3] 0.091 | [11] -0.106

URB2 (UniProt Q14146)
inactive: bafetinib 0.062 | nilotinib -0.186 | [4] 0.04 | [5] 0.255 | [9] -0.087 | [6] -0.025

UNC13A (UniProt Q9UPW8)
inactive: bafetinib 0.02 | [1] 0.102 | entinostat 0.023

USP11 (UniProt P51784)
inactive: [8] 0.073 | dasatinib 0.131 | [9] -0.174 | [10] -0.128 | tipifarnib 0.115 | mubritinib -0.104 | [1] -0.031 | [7] 0.333 | entinostat 0.065 | vorinostat 0.227 | silmitasertib 0.153 | [3] 0.311

Two entries picked at random from the list so far, as already listed:
USP27X (UniProt A6NNY8)
inactive: dasatinib 0.03 | [9] -0.353 | [10] -0.168 | [6] -0.253 | [3] -0.026

UNC13A (UniProt Q9UPW8)
inactive: bafetinib 0.02 | [1] 0.102 | entinostat 0.023

The list continues:

UXS1 isoform 2 (UniProt Q8NBZ7)
inactive: bafetinib 0.005 | nilotinib 0.003 | [4] 0.055 | dasatinib 0.022 | [5] -0.045 | [9] -0.101 | [10] -0.109 | tipifarnib 0.06 | mubritinib 0.003 | [1] 0.035 | [6] 0.114 | [7] 0 | [2] 0.002 | entinostat -0.027 | citarinostat -0.043 | silmitasertib -0.013 | [3] 0.128 | [11] -0.199

VAMP3 (UniProt Q15836)
inactive: bafetinib -0.075 | nilotinib 0.009 | [4] 0.039 | [5] 0.048 | [9] -0.036 | mubritinib -0.003 | [7] -0.059 | silmitasertib 0 | [3] -0.03

UPP1 (UniProt Q16831)
inactive: tipifarnib 0.064

ULBP1 (UniProt Q9BZM6)
inactive: dasatinib 0.083 | [9] 0.068 | [10] -0.11 | tipifarnib -0.097 | mubritinib 0.004 | [1] -0.045 | [6] 0.026 | [7] -0.227 | [2] -0.039 | entinostat 0.099 | silmitasertib 0.013 | [3] -0.188

UBR3 isoform 4 (UniProt Q6ZT12)
inactive: bafetinib -0.042 | dasatinib -0.213 | [9] 0.021 | tipifarnib 0.054 | [1] -0.119 | [2] -0.009 | entinostat 0.21 | citarinostat 0.092 | [3] -0.037 | [11] -0.351

UTP20 (UniProt O75691)
inactive: tipifarnib 0.089 | [3] 0.009

USP22 (UniProt Q9UPT9)
inactive: bafetinib -0.035 | nilotinib -0.055 | [4] 0.081 | dasatinib -0.074 | [5] -0.095 | [9] 0.171 | tipifarnib -0.187 | mubritinib 0.098 | [1] -0.059 | [6] -0.121 | [7] -0.075 | [2] -0.103 | entinostat -0.01 | citarinostat 0.042 | silmitasertib -0.061 | [3] -0.124 | [11] -0.022

UQCR11 (UniProt O14957)
inactive: [8] -0.08 | nilotinib -0.115 | [4] 0.094 | [5] 0.024 | [10] 0.002 | mubritinib 0.074 | [6] -0.007 | [7] -0.017 | vorinostat -0.084 | silmitasertib -0.204

UBQLN1 isoform 2 (UniProt Q9UMX0)
inactive: dasatinib -0.387 | mubritinib -0.08 | [7] 0.13 | silmitasertib -0.124

UBQLN3 (UniProt Q9H347)
inactive: [8] -0.195 | nilotinib -0.438 | [4] -0.037 | dasatinib 0.183 | [5] 0.472 | [9] 0.132 | [10] 0.043 | tipifarnib 0.039 | mubritinib -0.086 | [6] -0.09 | [7] -0.293 | [2] -0.086 | vorinostat -0.067 | citarinostat 0.028 | silmitasertib -0.169 | [3] 0.016 | [11] -0.033

UCHL1 (UniProt P09936)
inactive: [8] -0.017 | vorinostat 0.15

USP6NL isoform 2 (UniProt Q92738)
inactive: nilotinib 0.025 | [4] -0.023 | dasatinib -0.007 | [5] -0.068 | [9] -0.278 | [10] -0.126 | tipifarnib 0.032 | [1] -0.039 | [6] 0.078 | [2] -0.026 | entinostat -0.09 | citarinostat 0.097 | [3] 0.077 | [11] 0.051
